Laboratory results as given in doi:10.1101/2021.12.17.473173.
No constants are given. Whether binding was seen depends on the method and setting. In cells and extracts the contact can be indirect. Some binding calls cover weakened binding; strength is not graded here.

The chains behind the UniProt entries cited, without tags or fusion partners.
UniProt Q9ULT8: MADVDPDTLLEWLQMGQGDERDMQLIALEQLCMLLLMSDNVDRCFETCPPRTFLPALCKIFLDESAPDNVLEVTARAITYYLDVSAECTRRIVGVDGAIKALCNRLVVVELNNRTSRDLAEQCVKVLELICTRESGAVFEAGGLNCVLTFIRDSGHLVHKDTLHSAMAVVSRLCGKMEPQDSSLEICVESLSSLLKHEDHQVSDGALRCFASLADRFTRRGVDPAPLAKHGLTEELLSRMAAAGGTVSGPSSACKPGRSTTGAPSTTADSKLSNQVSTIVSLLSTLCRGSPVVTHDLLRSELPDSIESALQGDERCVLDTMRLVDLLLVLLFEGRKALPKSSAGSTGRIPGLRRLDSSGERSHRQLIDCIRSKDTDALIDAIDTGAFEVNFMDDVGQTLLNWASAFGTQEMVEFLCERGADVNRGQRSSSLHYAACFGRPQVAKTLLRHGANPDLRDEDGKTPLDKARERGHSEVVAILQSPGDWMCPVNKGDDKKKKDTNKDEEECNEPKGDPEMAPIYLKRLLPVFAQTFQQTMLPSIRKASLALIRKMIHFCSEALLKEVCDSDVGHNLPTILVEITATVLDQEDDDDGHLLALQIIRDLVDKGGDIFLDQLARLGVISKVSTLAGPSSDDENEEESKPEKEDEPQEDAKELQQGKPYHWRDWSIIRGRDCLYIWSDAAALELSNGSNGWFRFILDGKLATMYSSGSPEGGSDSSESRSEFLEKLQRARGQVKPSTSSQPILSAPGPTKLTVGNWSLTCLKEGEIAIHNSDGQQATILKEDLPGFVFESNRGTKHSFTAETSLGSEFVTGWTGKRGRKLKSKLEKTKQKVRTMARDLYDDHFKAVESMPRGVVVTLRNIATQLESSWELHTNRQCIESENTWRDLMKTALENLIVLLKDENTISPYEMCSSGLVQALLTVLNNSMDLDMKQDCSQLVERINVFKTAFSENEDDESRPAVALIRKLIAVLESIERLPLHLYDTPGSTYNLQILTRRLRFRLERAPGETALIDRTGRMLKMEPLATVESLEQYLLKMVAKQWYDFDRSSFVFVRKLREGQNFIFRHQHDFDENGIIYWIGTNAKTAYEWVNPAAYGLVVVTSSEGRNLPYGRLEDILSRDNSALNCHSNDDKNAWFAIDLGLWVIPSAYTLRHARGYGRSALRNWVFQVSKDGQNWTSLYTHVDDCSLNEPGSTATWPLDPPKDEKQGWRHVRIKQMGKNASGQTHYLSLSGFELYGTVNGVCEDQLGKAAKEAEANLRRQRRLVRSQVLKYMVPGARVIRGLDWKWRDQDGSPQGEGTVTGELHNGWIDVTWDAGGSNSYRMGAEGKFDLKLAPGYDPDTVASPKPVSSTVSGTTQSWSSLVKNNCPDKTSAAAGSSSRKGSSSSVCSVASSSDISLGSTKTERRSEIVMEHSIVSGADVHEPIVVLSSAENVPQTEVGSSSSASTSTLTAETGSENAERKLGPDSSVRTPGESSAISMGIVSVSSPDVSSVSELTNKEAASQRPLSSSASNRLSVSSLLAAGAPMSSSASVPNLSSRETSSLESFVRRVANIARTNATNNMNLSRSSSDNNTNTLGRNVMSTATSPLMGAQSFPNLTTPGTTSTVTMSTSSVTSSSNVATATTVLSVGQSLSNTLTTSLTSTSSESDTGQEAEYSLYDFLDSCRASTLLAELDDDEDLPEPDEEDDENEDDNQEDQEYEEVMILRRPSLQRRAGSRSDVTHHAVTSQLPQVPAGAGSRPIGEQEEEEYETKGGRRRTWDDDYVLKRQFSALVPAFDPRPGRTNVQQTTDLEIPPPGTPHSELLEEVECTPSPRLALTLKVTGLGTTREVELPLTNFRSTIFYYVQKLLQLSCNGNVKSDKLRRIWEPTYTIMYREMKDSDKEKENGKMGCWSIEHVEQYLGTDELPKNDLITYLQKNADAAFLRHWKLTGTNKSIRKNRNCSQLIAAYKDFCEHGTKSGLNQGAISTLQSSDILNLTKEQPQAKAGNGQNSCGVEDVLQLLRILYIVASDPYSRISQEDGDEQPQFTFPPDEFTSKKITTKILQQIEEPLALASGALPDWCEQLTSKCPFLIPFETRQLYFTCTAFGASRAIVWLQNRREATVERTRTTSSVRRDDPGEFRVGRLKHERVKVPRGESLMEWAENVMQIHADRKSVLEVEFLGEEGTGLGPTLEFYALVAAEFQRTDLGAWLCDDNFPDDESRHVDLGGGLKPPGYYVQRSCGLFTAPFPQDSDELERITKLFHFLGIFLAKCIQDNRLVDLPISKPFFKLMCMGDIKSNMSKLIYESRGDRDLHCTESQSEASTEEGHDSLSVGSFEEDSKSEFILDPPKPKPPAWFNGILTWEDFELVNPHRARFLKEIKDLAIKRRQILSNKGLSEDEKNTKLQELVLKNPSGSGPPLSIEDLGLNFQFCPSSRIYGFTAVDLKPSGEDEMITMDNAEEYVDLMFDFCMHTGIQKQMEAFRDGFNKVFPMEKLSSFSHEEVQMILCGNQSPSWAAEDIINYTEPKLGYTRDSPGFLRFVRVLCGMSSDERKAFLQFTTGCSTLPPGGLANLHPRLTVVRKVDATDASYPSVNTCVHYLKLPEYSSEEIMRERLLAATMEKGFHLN
UniProt O43684: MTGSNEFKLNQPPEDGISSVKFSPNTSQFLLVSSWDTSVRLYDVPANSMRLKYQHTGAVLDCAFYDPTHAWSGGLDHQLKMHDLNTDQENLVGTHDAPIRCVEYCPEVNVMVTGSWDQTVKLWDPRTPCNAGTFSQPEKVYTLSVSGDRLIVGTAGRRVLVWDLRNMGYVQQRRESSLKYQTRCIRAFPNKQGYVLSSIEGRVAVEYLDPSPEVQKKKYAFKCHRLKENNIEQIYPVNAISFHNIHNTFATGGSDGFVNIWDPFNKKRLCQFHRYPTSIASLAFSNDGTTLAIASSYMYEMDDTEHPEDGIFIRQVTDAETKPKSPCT
UniProt Q13257: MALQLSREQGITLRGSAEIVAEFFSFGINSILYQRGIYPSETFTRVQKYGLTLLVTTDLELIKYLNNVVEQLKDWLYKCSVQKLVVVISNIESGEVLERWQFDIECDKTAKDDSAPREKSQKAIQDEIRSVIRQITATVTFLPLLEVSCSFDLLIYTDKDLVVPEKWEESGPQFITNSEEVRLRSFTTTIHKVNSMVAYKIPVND
UniProt O60566: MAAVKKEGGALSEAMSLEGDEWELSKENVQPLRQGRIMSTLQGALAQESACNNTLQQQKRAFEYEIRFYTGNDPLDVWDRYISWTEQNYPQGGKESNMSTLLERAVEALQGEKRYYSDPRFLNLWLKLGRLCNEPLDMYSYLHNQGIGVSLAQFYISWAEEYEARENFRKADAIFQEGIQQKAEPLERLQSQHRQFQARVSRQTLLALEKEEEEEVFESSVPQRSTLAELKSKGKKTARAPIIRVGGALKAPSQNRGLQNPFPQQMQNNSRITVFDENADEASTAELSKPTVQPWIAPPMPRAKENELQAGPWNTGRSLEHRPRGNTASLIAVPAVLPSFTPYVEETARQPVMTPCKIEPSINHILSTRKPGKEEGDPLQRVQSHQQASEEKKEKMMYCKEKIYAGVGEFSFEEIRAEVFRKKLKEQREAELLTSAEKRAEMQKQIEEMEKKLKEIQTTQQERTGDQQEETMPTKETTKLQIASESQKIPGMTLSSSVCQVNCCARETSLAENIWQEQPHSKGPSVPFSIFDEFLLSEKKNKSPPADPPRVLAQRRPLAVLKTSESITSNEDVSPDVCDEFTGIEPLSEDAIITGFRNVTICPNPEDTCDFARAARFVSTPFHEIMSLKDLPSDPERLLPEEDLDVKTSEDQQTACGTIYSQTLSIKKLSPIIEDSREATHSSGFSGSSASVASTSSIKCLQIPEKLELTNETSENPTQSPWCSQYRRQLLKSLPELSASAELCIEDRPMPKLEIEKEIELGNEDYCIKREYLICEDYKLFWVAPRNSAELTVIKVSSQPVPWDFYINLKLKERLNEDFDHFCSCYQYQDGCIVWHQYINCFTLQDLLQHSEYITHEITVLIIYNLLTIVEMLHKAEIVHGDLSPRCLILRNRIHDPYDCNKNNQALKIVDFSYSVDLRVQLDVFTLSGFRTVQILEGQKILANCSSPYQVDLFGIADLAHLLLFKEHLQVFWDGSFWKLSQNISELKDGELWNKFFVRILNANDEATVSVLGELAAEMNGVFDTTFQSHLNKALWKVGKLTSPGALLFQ

target: HECTD1 (endogenous) (human (endogenous in HEK293T)) (UniProt Q9ULT8); experiment: co-IP

binding	Substance
binds	BUB3 (endogenous) (from UniProt O43684 1-328)
no binding	MAD2 (endogenous) (from UniProt Q13257 1-205)
no binding	BUBR1 (endogenous) (from UniProt O60566 1-1050)
